Source: the supplement of paper PMC3334620
The full ranking holds about 33,000 sequences; the median of “E-score (-0.5 to 0.5)” is about -0.0059, and the highest 2% start at about 0.26. The list shows a part of the results.

These sequences were tested against T1, Cin5 (UniProt P40917) (assay: PBM E-score (8-mer binding enrichment) (E-score (-0.5 to 0.5)); higher = stronger / more preferred TF binding). Settings: protein concentration: 100 nM; construct: GST-full length.
T1 sequence: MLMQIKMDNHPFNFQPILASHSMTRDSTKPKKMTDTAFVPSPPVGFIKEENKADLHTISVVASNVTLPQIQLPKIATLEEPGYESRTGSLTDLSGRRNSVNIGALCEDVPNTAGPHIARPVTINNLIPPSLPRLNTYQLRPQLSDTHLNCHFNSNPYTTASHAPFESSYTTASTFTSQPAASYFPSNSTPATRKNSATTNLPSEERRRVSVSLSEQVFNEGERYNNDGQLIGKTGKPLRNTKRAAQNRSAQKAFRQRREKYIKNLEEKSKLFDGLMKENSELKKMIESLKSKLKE
Experimental: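 Universal 'all 10-mer' protein binding microarrays (Agilent AMADID 015681) probed with GST-tagged S. cerevisiae TFs (full-length or DBD) made by in vitro transcription/translation (PURExpress), about 100-200 nM. Bound TF was detected with fluorescent anti-GST. Each ungapped 8-mer (which stands for itself and its reverse complement) is scored by the PBM enrichment score (E-score), a modified Wilcoxon-Mann-Whitney statistic from -0.5 to +0.5, computed with the Universal PBM Analysis Suite. Scale: above 0.35 generally sequence-specific binding.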
For GCAATGGA, the “PBM E-score” value was 0.062. For ACTACCGG, the “PBM E-score” value was -0.16. For GACACTAC, the “PBM E-score” value was 0.0741. CTAGAATA was tested, and the “PBM E-score” value was 0.146. ATACTCGC was tested, and the “PBM E-score” value was 0.247. In the case of GATCACGA, the “PBM E-score” value is reported as 0.137. CCCTACGG was tested, and the “PBM E-score” value was -0.172. With CGCGTAGC the “PBM E-score” value was -0.0721. GGCGTAGA was tested, and the “PBM E-score” value was -0.0537. CGAGCTCG was tested, and the “PBM E-score” value was 0.0762. CTAACACC was tested, and the “PBM E-score” value was -0.0334. In the case of AATTCGCA, the “PBM E-score” value is reported as 0.198. GGGCTCAA was tested, and the “PBM E-score” value was -0.26. CAGAGGTA was tested, and the “PBM E-score” value was -0.00695. GGATCCAC was tested, and the “PBM E-score” value was -0.0492. In the case of GATGCCGC, the “PBM E-score” value is reported as -0.151. GTCTTCAA was tested, and the “PBM E-score” value was -0.0931. With ACTAGCGA the “PBM E-score” value was -0.149. In the case of AAACGGCA, the “PBM E-score” value is reported as 0.126. For ATACATCA, the “PBM E-score” value was 0.212. With CCGCGGAG the “PBM E-score” value was 0.0845. In the case of CAGACATA, the “PBM E-score” value is reported as 0.0163. With CCTTCAGC the “PBM E-score” value was -0.133. In the case of AGTCTAGA, the “PBM E-score” value is reported as -0.219. With TCCAAGGA the “PBM E-score” value was -0.133. With GATCAGGC the “PBM E-score” value was -0.146. In the case of ATTGAGTG, the “PBM E-score” value is reported as 0.0972. For TACTCCAA, the “PBM E-score” value was 0.0407. In the case of AACGAAGG, the “PBM E-score” value is reported as -0.202. With TCTTCGCA the “PBM E-score” value was 0.121. With CTTCAGTC the “PBM E-score” value was -0.0807. For ACGTCAAC, the “PBM E-score” value was 0.0251. With GATCGACA the “PBM E-score” value was -0.0332. CGTGCTAA was tested, and the “PBM E-score” value was -0.159. For CCATTTGA, the “PBM E-score” value was -0.0459. ACCCTCCC was tested, and the “PBM E-score” value was 0.211. With AATCTTGT the “PBM E-score” value was 0.168. With GTCGCAGA the “PBM E-score” value was 0.0238. In the case of AAATGTAG, the “PBM E-score” value is reported as 0.101. TACAATCA was tested, and the “PBM E-score” value was 0.152. ATTCGTAC was tested, and the “PBM E-score” value was 0.194. AAGAGATA was tested, and the “PBM E-score” value was 0.0515. For ACAGCTCC, the “PBM E-score” value was -0.0268. In the case of GATGTTCC, the “PBM E-score” value is reported as 0.0101. GCTGCCCA was tested, and the “PBM E-score” value was -0.122. With AGCGTTGG the “PBM E-score” value was -0.066. For AAGATGGA, the “PBM E-score” value was 0.109. With GCTAATCA the “PBM E-score” value was 0.212. For ATTCGCTC, the “PBM E-score” value was 0.141. CGAAGTCA was tested, and the “PBM E-score” value was -0.0586. For GCGCTGGA, the “PBM E-score” value was -0.129. With TATTGCCA the “PBM E-score” value was 0.142. For GAGCACTA, the “PBM E-score” value was -0.108. ATCGCAAA was tested, and the “PBM E-score” value was 0.112. In the case of TATATGAA, the “PBM E-score” value is reported as 0.129. For GAGGTATA, the “PBM E-score” value was 0.177. ACGATGCA was tested, and the “PBM E-score” value was -0.0364. In the case of ATAGTAGA, the “PBM E-score” value is reported as 0.139. With ACTGTTGA the “PBM E-score” value was -0.0374. With AGTATCTG the “PBM E-score” value was -0.139. In the case of AGTACTAA, the “PBM E-score” value is reported as 0.186. AAGTTCCT was tested, and the “PBM E-score” value was -0.0434. In the case of AGTCCGTC, the “PBM E-score” value is reported as -0.0718. AAGACACG was tested, and the “PBM E-score” value was 0.0495. With AGATTCCA the “PBM E-score” value was 0.177. With ATGTTCAA the “PBM E-score” value was -0.00599. With CGTGGTTA the “PBM E-score” value was -0.0732. CGAAAGCC was tested, and the “PBM E-score” value was -0.293. CCGCCTTA was tested, and the “PBM E-score” value was -0.1. For ACAATGCA, the “PBM E-score” value was 0.134. CAGGTTGG was tested, and the “PBM E-score” value was 0.0152. In the case of CCGCACGG, the “PBM E-score” value is reported as -0.0998. For ATACCGAA, the “PBM E-score” value was -0.00536. ATTCTATG was tested, and the “PBM E-score” value was 0.113. For AGGATATG, the “PBM E-score” value was 0.174. In the case of TGAACAAA, the “PBM E-score” value is reported as 0.217. With ATACGGGC the “PBM E-score” value was -0.128. For CAGTCTGG, the “PBM E-score” value was -0.276. For CAACTCAC, the “PBM E-score” value was 0.0244. GCAGAATA was tested, and the “PBM E-score” value was 0.0866. In the case of ACGAGCCC, the “PBM E-score” value is reported as -0.0676. For CATCCAAG, the “PBM E-score” value was -0.0392. For GCTAGTTA, the “PBM E-score” value was 0.132. AAGGGTAG was tested, and the “PBM E-score” value was -0.142. For CCTTCAAG, the “PBM E-score” value was -0.126. With AGCACGAT the “PBM E-score” value was 0.0861. In the case of AGCGCGGA, the “PBM E-score” value is reported as 0.0803. CTTTGCCC was tested, and the “PBM E-score” value was -0.199. For ACGCACTA, the “PBM E-score” value was 0.0242. With AGACCCCC the “PBM E-score” value was -0.45. For ATCTATTA, the “PBM E-score” value was 0.321. For ATGTATGG, the “PBM E-score” value was 0.0201. In the case of CCCCTGAA, the “PBM E-score” value is reported as 0.00838. In the case of AGGTCGAC, the “PBM E-score” value is reported as 0.102. In the case of AGGCGGCC, the “PBM E-score” value is reported as -0.201. For AGACCACC, the “PBM E-score” value was -0.123. In the case of ACTTGCAC, the “PBM E-score” value is reported as 0.115. AAGTTCAT was tested, and the “PBM E-score” value was 0.111. CACGTTGC was tested, and the “PBM E-score” value was -0.209. With AGGGAGTA the “PBM E-score” value was -0.0437. In the case of GGACCCCC, the “PBM E-score” value is reported as -0.463. With GAGCGCGC the “PBM E-score” value was 0.109. With AAACGTAT the “PBM E-score” value was 0.167. AAATGTGG was tested, and the “PBM E-score” value was 0.16. In the case of GCGCAAAA, the “PBM E-score” value is reported as 0.105. ACTGGCAA was tested, and the “PBM E-score” value was -0.0416. ACCGTAAA was tested, and the “PBM E-score” value was 0.0629. GGCCAGAC was tested, and the “PBM E-score” value was -0.24. In the case of GCGGTTGA, the “PBM E-score” value is reported as 0.0621. For GGATTAAA, the “PBM E-score” value was 0.163. In the case of ATTTAGTA, the “PBM E-score” value is reported as 0.303. For ATGGGGCG, the “PBM E-score” value was 0.102. In the case of TCTGGCCA, the “PBM E-score” value is reported as -0.0187. For ATCGACGC, the “PBM E-score” value was 0.108. In the case of GCGATACC, the “PBM E-score” value is reported as -0.132. AGAACTGA was tested, and the “PBM E-score” value was 0.024. In the case of CCTTAGCA, the “PBM E-score” value is reported as -0.0346. In the case of ACACTCCT, the “PBM E-score” value is reported as -0.0471. AATGATAA was tested, and the “PBM E-score” value was 0.227. With AATTCCAC the “PBM E-score” value was 0.213. With TATACGAA the “PBM E-score” value was 0.171. In the case of GGCCAACC, the “PBM E-score” value is reported as -0.186. For TCAATTGA, the “PBM E-score” value was 0.123. With GCAAGAAC the “PBM E-score” value was 0.0698. For CCAGCGCG, the “PBM E-score” value was -0.0927. With CATCGGTC the “PBM E-score” value was -0.174. For GCGCCCGC, the “PBM E-score” value was -0.105. With GCGATCCC the “PBM E-score” value was -0.193. With AACTGAAA the “PBM E-score” value was 0.0105. For CCCAAGAC, the “PBM E-score” value was -0.174. In the case of CTCTCGCA, the “PBM E-score” value is reported as -0.219. In the case of CATCTTCA, the “PBM E-score” value is reported as -0.124. CAGAGATG was tested, and the “PBM E-score” value was 0.0572. CCTGACTC was tested, and the “PBM E-score” value was -0.0607. AGACCTTC was tested, and the “PBM E-score” value was -0.134. GCCCATCA was tested, and the “PBM E-score” value was -0.115. GTATCAAC was tested, and the “PBM E-score” value was 0.0602. In the case of CAGGATTA, the “PBM E-score” value is reported as 0.107. CGAGCACC was tested, and the “PBM E-score” value was -0.2. For ACGACGAT, the “PBM E-score” value was 0.163. In the case of AAATATGG, the “PBM E-score” value is reported as 0.0459. For CTTGGGCC, the “PBM E-score” value was -0.316. For ATCAAGGG, the “PBM E-score” value was -0.0329. In the case of ACTGAGAT, the “PBM E-score” value is reported as 0.0809. AACTAAAG was tested, and the “PBM E-score” value was 0.00596. For AGGGAACA, the “PBM E-score” value was -0.126. For TACGCATA, the “PBM E-score” value was 0.154. In the case of TATCGAAA, the “PBM E-score” value is reported as 0.19. CTTGTCGC was tested, and the “PBM E-score” value was -0.00961. In the case of AAACATTA, the “PBM E-score” value is reported as 0.0149. With CCGCTTAG the “PBM E-score” value was -0.0568. In the case of CCCACAGG, the “PBM E-score” value is reported as -0.152. With CGGCCGGA the “PBM E-score” value was -0.0752. With TCTAACCA the “PBM E-score” value was 0.123. In the case of CCTACAGC, the “PBM E-score” value is reported as 0.0164. With GCTCGCAC the “PBM E-score” value was -0.0813. TGAGGACA was tested, and the “PBM E-score” value was -0.00686. For AAGCACGG, the “PBM E-score” value was -0.048. AAGTCAAA was tested, and the “PBM E-score” value was 0.0801. In the case of AATTTTTG, the “PBM E-score” value is reported as 0.0437. AATCGTGG was tested, and the “PBM E-score” value was 0.217. With CCCTCACG the “PBM E-score” value was -0.121. With GGGTTGAC the “PBM E-score” value was 0.0366. In the case of AAAAGGAG, the “PBM E-score” value is reported as -0.153. With GCATGCCC the “PBM E-score” value was 0.076. For ATCCAGTA, the “PBM E-score” value was 0.208. For AGACGACG, the “PBM E-score” value was 0.0542. In the case of CCCTTGTA, the “PBM E-score” value is reported as -0.0853. GTGATTTA was tested, and the “PBM E-score” value was 0.19. With TAGGCACA the “PBM E-score” value was -0.0732. In the case of CAGAGATC, the “PBM E-score” value is reported as -0.0122. With TCCGGGAA the “PBM E-score” value was 0.146.
